Here are results for 35 targets from the supplement of paper PMC10849652.

The chains behind the UniProt entries cited, without tags or fusion partners. Where a name states a change or a piece, a line headed by the entry shows the natural chain unless it says otherwise.
UniProt Q63HQ0: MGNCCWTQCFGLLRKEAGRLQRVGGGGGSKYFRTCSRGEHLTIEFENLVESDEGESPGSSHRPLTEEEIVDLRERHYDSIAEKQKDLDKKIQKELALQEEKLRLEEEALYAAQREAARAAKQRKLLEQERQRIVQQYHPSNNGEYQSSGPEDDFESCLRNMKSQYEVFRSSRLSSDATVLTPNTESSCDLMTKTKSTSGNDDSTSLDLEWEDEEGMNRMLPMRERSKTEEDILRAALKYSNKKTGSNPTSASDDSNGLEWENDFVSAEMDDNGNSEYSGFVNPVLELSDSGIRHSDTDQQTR
UniProt Q8WVL7: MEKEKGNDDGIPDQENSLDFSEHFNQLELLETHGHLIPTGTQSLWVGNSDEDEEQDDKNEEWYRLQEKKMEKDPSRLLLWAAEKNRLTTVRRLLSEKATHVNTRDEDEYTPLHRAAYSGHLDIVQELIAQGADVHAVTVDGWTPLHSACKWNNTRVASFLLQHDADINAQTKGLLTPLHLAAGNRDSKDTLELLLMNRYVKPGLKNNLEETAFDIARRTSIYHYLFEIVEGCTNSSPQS
UniProt Q8N6D5: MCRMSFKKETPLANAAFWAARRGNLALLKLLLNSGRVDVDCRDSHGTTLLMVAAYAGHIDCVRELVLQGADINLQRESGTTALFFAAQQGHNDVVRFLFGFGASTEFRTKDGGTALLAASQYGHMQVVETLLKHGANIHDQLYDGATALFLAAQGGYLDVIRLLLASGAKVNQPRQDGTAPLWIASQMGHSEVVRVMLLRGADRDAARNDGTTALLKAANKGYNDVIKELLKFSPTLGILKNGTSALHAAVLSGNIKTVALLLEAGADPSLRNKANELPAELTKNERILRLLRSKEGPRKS
UniProt O95445: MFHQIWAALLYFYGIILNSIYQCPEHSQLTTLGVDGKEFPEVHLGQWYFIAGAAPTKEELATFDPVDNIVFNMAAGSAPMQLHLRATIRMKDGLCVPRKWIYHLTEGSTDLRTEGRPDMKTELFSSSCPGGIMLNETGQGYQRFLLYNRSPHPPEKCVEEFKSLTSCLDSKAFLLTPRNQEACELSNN
UniProt P42331: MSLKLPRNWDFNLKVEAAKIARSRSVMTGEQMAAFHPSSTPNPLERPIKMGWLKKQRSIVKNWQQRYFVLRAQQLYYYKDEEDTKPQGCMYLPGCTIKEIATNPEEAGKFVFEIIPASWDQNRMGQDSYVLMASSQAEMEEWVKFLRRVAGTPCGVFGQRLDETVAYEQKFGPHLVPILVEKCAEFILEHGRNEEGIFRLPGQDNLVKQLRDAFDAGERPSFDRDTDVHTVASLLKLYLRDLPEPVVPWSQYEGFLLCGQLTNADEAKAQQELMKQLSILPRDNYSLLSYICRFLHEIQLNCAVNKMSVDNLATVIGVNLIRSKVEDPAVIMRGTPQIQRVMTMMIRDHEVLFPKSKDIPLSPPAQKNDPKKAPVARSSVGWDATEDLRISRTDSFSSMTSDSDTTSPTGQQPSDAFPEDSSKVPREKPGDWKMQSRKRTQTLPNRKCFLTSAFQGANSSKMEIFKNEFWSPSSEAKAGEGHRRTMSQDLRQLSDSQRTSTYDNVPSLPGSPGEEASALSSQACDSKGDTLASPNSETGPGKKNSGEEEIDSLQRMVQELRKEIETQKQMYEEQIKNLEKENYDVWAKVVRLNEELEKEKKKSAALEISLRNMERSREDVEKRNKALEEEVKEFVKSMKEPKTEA
UniProt P02749: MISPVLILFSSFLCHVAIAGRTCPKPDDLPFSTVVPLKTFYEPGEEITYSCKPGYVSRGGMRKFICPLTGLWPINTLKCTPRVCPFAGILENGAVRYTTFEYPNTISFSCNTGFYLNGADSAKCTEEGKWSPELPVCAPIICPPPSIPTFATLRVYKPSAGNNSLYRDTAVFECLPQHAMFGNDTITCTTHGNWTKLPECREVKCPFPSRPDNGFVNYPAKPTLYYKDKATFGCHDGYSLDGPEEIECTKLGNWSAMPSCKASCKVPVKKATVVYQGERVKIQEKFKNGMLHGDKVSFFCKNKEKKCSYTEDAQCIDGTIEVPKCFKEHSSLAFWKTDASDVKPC
UniProt Q9UKG1: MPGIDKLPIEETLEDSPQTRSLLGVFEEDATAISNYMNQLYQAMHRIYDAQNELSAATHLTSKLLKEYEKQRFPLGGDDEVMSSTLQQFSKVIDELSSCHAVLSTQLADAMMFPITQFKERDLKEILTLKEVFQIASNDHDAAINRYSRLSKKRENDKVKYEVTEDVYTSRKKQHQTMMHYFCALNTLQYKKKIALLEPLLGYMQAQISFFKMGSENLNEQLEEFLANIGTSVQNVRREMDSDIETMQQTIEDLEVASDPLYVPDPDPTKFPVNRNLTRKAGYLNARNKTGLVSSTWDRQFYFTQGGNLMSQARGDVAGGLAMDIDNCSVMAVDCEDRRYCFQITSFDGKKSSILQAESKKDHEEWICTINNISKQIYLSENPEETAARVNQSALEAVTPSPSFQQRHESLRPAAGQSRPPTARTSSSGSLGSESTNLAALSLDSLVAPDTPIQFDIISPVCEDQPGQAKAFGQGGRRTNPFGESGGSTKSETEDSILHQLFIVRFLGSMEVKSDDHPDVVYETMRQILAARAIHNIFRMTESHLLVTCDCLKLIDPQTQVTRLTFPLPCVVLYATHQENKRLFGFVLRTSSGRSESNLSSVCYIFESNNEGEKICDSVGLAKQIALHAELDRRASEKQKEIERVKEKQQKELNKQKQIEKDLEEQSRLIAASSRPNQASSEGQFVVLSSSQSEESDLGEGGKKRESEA
UniProt P53680: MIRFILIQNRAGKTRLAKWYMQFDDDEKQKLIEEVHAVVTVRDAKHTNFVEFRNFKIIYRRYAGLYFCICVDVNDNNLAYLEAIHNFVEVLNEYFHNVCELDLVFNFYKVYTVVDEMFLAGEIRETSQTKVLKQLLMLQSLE
UniProt P78540: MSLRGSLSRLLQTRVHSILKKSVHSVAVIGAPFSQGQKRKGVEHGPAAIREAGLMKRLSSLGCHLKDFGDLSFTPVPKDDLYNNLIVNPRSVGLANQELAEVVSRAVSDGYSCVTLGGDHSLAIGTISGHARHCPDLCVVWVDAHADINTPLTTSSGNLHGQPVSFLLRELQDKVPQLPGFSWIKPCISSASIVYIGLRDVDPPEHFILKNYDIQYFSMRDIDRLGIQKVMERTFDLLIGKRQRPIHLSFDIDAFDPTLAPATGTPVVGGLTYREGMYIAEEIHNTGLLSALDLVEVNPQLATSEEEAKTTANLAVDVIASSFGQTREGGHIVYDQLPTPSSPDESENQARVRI
UniProt P20073: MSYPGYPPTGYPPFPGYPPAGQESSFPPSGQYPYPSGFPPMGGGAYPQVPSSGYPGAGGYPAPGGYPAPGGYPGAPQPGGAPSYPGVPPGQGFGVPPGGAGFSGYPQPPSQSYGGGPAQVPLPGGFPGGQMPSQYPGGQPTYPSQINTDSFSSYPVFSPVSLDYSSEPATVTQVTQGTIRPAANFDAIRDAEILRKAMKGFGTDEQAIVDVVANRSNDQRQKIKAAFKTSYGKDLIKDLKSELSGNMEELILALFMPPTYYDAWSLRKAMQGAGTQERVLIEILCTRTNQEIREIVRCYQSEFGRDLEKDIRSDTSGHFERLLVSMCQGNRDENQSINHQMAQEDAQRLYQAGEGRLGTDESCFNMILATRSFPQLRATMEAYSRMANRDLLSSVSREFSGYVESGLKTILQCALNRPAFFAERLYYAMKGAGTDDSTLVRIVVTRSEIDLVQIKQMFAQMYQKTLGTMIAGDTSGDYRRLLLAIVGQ
UniProt Q8N6H7: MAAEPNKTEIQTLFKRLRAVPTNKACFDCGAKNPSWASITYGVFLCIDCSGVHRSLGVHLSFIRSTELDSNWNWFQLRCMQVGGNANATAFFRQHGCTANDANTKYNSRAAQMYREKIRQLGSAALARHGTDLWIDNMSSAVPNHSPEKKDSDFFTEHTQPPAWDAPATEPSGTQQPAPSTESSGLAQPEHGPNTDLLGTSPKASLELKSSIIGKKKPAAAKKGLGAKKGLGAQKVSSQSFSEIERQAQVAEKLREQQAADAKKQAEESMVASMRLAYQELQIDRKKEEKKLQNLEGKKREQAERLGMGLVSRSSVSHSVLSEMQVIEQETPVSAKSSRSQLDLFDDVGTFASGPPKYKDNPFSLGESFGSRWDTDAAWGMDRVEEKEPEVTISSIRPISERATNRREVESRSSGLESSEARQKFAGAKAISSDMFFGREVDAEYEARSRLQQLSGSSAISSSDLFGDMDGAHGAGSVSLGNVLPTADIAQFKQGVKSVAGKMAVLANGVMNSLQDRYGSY
UniProt Q8IV38: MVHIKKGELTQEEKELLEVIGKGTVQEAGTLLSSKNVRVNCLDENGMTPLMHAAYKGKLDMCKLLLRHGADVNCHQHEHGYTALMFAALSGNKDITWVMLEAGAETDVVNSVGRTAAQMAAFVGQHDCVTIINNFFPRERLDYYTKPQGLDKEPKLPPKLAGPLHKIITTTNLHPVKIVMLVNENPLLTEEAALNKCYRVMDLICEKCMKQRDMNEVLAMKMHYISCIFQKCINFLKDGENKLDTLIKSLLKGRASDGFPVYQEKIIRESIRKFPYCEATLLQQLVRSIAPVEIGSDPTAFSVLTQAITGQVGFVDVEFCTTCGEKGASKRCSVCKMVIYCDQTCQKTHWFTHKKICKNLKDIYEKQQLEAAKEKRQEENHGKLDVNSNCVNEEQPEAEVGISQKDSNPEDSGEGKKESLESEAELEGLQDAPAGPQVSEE
UniProt Q9BQD7: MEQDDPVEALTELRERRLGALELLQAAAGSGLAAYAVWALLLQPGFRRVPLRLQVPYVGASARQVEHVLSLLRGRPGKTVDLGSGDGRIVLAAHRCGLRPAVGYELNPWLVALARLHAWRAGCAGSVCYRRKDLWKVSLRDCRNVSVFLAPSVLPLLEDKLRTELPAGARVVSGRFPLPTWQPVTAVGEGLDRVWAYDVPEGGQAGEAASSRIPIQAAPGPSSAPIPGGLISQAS
UniProt Q9Y2T2: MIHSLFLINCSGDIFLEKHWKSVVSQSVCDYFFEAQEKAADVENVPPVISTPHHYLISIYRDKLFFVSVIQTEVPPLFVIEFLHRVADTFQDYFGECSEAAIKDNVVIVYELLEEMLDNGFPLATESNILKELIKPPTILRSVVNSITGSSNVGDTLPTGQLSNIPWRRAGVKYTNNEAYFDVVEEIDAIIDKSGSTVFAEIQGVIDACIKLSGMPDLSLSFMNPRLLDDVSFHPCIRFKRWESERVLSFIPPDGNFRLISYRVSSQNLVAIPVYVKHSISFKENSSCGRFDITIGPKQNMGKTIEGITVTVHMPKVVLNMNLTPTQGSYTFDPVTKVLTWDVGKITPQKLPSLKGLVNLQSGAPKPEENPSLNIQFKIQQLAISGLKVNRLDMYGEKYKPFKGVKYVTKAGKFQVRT
UniProt Q9NP61: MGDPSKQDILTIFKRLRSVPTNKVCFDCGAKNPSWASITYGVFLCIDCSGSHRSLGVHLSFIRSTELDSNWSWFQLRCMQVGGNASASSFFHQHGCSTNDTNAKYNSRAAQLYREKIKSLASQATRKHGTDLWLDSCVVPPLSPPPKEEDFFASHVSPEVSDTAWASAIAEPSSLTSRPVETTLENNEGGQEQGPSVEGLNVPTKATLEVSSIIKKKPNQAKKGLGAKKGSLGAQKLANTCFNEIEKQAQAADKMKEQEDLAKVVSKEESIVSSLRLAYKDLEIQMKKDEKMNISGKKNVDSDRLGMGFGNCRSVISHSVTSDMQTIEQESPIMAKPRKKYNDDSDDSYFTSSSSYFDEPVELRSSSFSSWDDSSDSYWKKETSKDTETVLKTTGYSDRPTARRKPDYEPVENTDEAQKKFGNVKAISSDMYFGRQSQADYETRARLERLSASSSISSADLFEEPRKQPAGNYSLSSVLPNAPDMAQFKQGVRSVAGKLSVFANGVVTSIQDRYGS
UniProt P13798: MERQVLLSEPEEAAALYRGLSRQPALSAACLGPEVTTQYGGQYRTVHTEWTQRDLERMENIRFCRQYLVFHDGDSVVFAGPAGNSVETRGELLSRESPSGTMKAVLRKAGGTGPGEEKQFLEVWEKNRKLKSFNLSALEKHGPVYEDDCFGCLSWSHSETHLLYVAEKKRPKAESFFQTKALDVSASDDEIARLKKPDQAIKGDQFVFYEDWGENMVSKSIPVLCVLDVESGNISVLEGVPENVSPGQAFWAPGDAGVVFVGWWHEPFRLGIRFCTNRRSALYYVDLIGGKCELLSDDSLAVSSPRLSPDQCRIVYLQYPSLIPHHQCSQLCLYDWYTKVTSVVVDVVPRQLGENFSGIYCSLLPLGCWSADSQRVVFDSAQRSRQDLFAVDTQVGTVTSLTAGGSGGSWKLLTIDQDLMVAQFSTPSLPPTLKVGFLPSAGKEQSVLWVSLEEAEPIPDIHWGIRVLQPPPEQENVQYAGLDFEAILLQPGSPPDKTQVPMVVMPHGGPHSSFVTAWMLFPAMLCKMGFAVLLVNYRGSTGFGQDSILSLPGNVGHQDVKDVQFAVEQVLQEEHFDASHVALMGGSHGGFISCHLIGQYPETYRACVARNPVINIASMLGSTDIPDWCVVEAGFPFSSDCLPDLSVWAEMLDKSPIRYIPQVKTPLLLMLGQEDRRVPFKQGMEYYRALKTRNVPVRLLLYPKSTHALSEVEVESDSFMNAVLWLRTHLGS

Some of the results follow.

Compound in one experiment: CC1=C(SC2=C1C(=N[C@H](C3=NN=C(N32)C)CC(=O)N)C4=CC=C(C=C4)Cl)C
Kind of experiment: log2 fold change, soluble protein after heating vs DMSO (PISA); higher = thermal stabilisation; K562 cells, 10 uM, 30 min; active = over 0.2 and 3.5 SD of the protein, either way, in both replicates (recomputed). The method in brief:
(§1)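 Values are thermal stability changes relative to control samples and are taken from duplicates. They are stated as log2 fold changes. Before quantification by TMTpro 16plex LC-MS/MS with equalised channel sums, K562 cells at 2×10^6 cells/mL were treated with 10 μM compound for 30 min, heated in aliquots for 3 min across 48°C-58°C, pooled, extracted in PBS with 0.5% NP-40 at 4°C, and centrifuged at 21,000xg for 90 min to give the soluble supernatant.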
Turning to AP1AR (UniProt Q63HQ0), the log2 fold change was inactive: -0.068.

With ARHGAP17 (UniProt Q68EM7), the log2 fold change is inactive: -0.122.

As to ANKRD49 (UniProt Q8WVL7), the log2 fold change is inactive: 0.002.

ARFRP1 (UniProt Q13795): the log2 fold change is inactive: -0.066.

Take ANKRD29 (UniProt Q8N6D5): the log2 fold change was inactive: 0.199.

With APOM (UniProt O95445), the log2 fold change is inactive: -0.109.

On to ARHGAP25 isoform 4 (UniProt P42331), for which the log2 fold change is inactive: -0.171.

Turning to ANXA4 (UniProt P09525), the log2 fold change was inactive: 0.009.

Consider APOH (UniProt P02749), for which the log2 fold change was inactive: -0.106.

APPL1 (UniProt Q9UKG1): the log2 fold change is inactive: 0.122.

ANTXR2 isoform 4 (UniProt P58335): the log2 fold change was inactive: 0.069.

As for AP2S1 (UniProt P53680), the log2 fold change is inactive: -0.007.

With ARHGEF7 isoform 5 (UniProt Q14155), the log2 fold change is inactive: -0.062.

On to AP4E1 (UniProt Q9UPM8), for which the log2 fold change is inactive: 0.081.

For ARG2 (UniProt P78540), the log2 fold change is inactive: -0.061.

For the target ANXA7 (UniProt P20073), the log2 fold change was inactive: 0.028.

As to APLP2 (UniProt Q06481), the log2 fold change was inactive: -0.003.

For the target ARFGAP2 (UniProt Q8N6H7), the log2 fold change is inactive: 0.039.

Turning to ANP32A (UniProt P39687), the log2 fold change is inactive: 0.015.

Consider ARF5 (UniProt P84085), for which the log2 fold change is inactive: 0.03.

In the case of ARFGAP1 (UniProt Q8N6T3), the log2 fold change is inactive: 0.077.

For ANKMY2 (UniProt Q8IV38), the log2 fold change was inactive: 0.028.

For the target ANTKMT (UniProt Q9BQD7), the log2 fold change was inactive: 0.057.

As to AP3M1 (UniProt Q9Y2T2), the log2 fold change is inactive: 0.045.

Consider ARFGAP3 (UniProt Q9NP61), for which the log2 fold change was inactive: 0.041.

For ARCN1 (UniProt P48444), the log2 fold change is inactive: 0.022.

For ARHGEF2 (UniProt Q92974), the log2 fold change is inactive: -0.255.

Consider ANP32E (UniProt Q9BTT0), for which the log2 fold change was inactive: -0.037.

Regarding AP2A1 (UniProt O95782), the log2 fold change is inactive: -0.021.

With AP2A2 isoform 2 (UniProt O94973), the log2 fold change is inactive: -0.02.

With ARHGAP45 isoform 2 (UniProt Q92619), the log2 fold change was inactive: -0.053.

On to AP2M1 (UniProt C9JTK4), for which the log2 fold change was inactive: 0.083.

Take ARGLU1 (UniProt Q9NWB6): the log2 fold change is inactive: -0.117.

Take AP2M1 (UniProt Q96CW1): the log2 fold change is inactive: 0.03.

As for APEH (UniProt P13798), the log2 fold change was inactive: -0.003.

Compound in the next experiment: CC1=C2C(=CC=C1)N=C(N(C2=O)C3=CC=CC=C3C)CN4C=NC5=C(N=CN=C54)N
The experiment is described as above. The method in brief:
as §1
With AP1AR (UniProt Q63HQ0), the log2 fold change is inactive: -0.023.

Regarding ARHGAP17 (UniProt Q68EM7), the log2 fold change is inactive: 0.167.

ANKRD49 (UniProt Q8WVL7): the log2 fold change was inactive: 0.057.

On to ARFRP1 (UniProt Q13795), for which the log2 fold change is inactive: -0.03.

On to ANKRD29 (UniProt Q8N6D5), for which the log2 fold change was inactive: 0.248.

Take APOM (UniProt O95445): the log2 fold change was inactive: 0.044.

For the target ARHGAP25 isoform 4 (UniProt P42331), the log2 fold change was inactive: -0.173.

For the target ANXA4 (UniProt P09525), the log2 fold change is inactive: 0.126.

In the case of APOH (UniProt P02749), the log2 fold change is inactive: 0.073.

As to APPL1 (UniProt Q9UKG1), the log2 fold change was inactive: 0.086.

ANTXR2 isoform 4 (UniProt P58335): the log2 fold change was inactive: 0.065.

In the case of AP2S1 (UniProt P53680), the log2 fold change is inactive: -0.036.

Consider ARHGEF7 isoform 5 (UniProt Q14155), for which the log2 fold change is inactive: 0.112.

As to AP4E1 (UniProt Q9UPM8), the log2 fold change was inactive: 0.106.

As to ARG2 (UniProt P78540), the log2 fold change was inactive: -0.034.

For the target ANXA7 (UniProt P20073), the log2 fold change was inactive: 0.047.

On to APLP2 (UniProt Q06481), for which the log2 fold change was inactive: 0.

With ARFGAP2 (UniProt Q8N6H7), the log2 fold change is inactive: 0.086.

Turning to ANP32A (UniProt P39687), the log2 fold change is inactive: 0.017.

For ARF5 (UniProt P84085), the log2 fold change was inactive: 0.041.

Take ARFGAP1 (UniProt Q8N6T3): the log2 fold change was inactive: 0.074.

With ANKMY2 (UniProt Q8IV38), the log2 fold change is inactive: 0.087.

For ANTKMT (UniProt Q9BQD7), the log2 fold change was inactive: 0.026.

Consider AP3M1 (UniProt Q9Y2T2), for which the log2 fold change was inactive: 0.036.

On to ARFGAP3 (UniProt Q9NP61), for which the log2 fold change was inactive: 0.119.

For the target ARCN1 (UniProt P48444), the log2 fold change was inactive: -0.02.

As to ARHGEF2 (UniProt Q92974), the log2 fold change was inactive: -0.037.

With ANP32E (UniProt Q9BTT0), the log2 fold change is inactive: 0.14.

As for AP2A1 (UniProt O95782), the log2 fold change is inactive: -0.028.

For the target AP2A2 isoform 2 (UniProt O94973), the log2 fold change was inactive: 0.04.

For the target ARHGAP45 isoform 2 (UniProt Q92619), the log2 fold change was inactive: 0.024.

On to AP2M1 (UniProt C9JTK4), for which the log2 fold change is inactive: 0.131.

Turning to ARGLU1 (UniProt Q9NWB6), the log2 fold change is inactive: -0.013.

As to AP2M1 (UniProt Q96CW1), the log2 fold change is inactive: -0.013.

As for APEH (UniProt P13798), the log2 fold change is inactive: 0.036.
